Results reported in article PMC12550032.
These are yes or no findings as the source states them, for the method shown. Some entries that bind do so weakly or less than the wild type.

By UniProt entry, the sequences of proteins in these tests, tags left out.
UniProt Q91MA2: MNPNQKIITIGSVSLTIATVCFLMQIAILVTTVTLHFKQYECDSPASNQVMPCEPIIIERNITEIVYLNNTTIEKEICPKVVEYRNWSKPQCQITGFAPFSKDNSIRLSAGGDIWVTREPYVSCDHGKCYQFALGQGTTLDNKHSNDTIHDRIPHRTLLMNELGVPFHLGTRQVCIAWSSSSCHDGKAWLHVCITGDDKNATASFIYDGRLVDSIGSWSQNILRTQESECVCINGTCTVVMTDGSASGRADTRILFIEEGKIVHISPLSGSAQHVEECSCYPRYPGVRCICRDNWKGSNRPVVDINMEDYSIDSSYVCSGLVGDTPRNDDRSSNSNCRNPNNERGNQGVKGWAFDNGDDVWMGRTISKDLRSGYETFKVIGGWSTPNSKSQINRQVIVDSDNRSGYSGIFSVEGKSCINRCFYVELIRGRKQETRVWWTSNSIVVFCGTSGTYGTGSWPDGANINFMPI
UniProt P03468: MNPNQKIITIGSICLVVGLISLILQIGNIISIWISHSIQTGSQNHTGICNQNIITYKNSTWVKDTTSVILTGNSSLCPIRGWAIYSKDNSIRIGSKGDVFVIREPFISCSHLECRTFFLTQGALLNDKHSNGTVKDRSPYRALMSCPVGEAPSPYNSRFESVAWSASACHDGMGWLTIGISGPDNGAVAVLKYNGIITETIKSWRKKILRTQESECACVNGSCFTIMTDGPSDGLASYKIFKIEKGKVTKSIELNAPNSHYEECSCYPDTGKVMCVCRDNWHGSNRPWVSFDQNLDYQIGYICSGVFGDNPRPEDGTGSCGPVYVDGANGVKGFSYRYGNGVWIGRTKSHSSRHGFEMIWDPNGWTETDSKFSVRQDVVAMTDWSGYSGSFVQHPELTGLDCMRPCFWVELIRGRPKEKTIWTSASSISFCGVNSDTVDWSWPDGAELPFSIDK

Tests used:
[1] = target: neuraminidase (NA) of influenza A/Hong Kong/1/68 (H3N2) (Influenza A virus A/Hong Kong/1/68 (H3N2)) (UniProt Q91MA2); test: cryo-EM structure
[2] = target: neuraminidase (NA) of influenza A/Puerto Rico/8/1934 (H1N1) (Influenza A virus A/Puerto Rico/8/1934 (H1N1)) (UniProt P03468); test: in situ cryo-electron tomography

Row | Substance | binding [1] | binding [2]
1 | neuraminidase (NA) of influenza A/Hong Kong/1/68 (H3N2) (from UniProt Q91MA2 1-469) | binds | –
2 | neuraminidase (NA) of influenza A/Puerto Rico/8/1934 (H1N1) (from UniProt P03468 1-454) | – | no binding
